Test [1] addresses T1, MET18, yeast two-hybrid fusion (Arabidopsis) (UniProt Q0WVF8).
T1 sequence: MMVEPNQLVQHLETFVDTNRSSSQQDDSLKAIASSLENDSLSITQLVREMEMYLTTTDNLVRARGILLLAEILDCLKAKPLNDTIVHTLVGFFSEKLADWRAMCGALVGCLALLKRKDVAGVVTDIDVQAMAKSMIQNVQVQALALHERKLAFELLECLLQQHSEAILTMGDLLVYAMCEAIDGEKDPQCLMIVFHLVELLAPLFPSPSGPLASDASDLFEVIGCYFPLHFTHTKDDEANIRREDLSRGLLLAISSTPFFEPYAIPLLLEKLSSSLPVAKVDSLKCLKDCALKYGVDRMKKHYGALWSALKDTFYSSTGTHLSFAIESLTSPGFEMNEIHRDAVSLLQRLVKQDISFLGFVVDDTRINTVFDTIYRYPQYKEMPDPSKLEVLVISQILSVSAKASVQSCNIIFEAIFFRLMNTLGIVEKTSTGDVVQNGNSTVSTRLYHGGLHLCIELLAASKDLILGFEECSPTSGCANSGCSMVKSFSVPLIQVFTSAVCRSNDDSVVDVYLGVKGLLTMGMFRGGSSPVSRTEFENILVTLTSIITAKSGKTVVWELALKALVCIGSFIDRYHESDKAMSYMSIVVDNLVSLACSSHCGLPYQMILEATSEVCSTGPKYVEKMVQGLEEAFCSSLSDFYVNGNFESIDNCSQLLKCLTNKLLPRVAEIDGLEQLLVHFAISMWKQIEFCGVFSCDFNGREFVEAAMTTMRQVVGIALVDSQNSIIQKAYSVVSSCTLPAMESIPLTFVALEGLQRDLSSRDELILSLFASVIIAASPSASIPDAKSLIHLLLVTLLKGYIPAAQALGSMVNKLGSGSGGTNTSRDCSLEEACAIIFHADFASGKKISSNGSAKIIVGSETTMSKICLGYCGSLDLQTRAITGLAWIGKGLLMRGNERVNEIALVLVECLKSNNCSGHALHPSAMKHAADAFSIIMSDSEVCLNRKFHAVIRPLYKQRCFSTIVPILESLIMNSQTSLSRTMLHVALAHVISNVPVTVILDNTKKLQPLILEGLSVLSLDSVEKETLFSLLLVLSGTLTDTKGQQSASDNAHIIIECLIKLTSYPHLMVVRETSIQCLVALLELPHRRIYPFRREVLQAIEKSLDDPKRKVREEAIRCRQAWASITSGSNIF
The experiment in a line: two-hybrid; pGBK-T7 (BD) and pGAD-T7 (AD) fusions co-transformed into yeast strain AH109; growth on medium lacking Leu, Trp and His (SD-TLH).

Test [2] has as its target T2, MET18-cLUC (Arabidopsis) (UniProt Q0WVF8).
T2 sequence: T1 sequence
The test can be described thus: split reporter; firefly luciferase complementation imaging (split-LUC); nLUC and cLUC fusions co-infiltrated into Nicotiana benthamiana leaves, with viral p19.

Where a chain is given by its changes, count along the chain named. In names and notes the source's numbering stands. No constants are given. Whether binding was seen depends on the method and setting. For some of these results: Binding seen in cells or lysates may run through a third protein. Some results given as binding are weak or reduced against the parent protein; the word gives no strength. Sequences can lack the tags named with a protein.

B1: AE7, yeast two-hybrid fusion (protein, UniProt Q9C9G6 1-157)
chain: MVSGLINENPIIYPKKERRLRTDTSITDELTPEPIDQLEIFDHIRDIKDPEHPNTLEDLRVVTEDSVEVDDENSYVRVTFTPTVEHCSMATVIGLCVRVKLLRSLPSRYKIDIRVAPGSHATEDALNKQLNDKERVAAALENPNLVEMVDECLPSEE
B1: the binding entry in test [1] is given as “binds”.

B2: ROS1, yeast two-hybrid fusion (protein, UniProt Q9SJQ6 1-1393)
chain: MEKQRREESSFQQPPWIPQTPMKPFSPICPYTVEDQYHSSQLEERRFVGNKDMSGLDHLSFGDLLALANTASLIFSGQTPIPTRNTEVMQKGTEEVESLSSVSNNVAEQILKTPEKPKRKKHRPKVRREAKPKREPKPRAPRKSVVTDGQESKTPKRKYVRKKVEVSKDQDATPVESSAAVETSTRPKRLCRRVLDFEAENGENQTNGDIREAGEMESALQEKQLDSGNQELKDCLLSAPSTPKRKRSQGKRKGVQPKKNGSNLEEVDISMAQAAKRRQGPTCCDMNLSGIQYDEQCDYQKMHWLYSPNLQQGGMRYDAICSKVFSGQQHNYVSAFHATCYSSTSQLSANRVLTVEERREGIFQGRQESELNVLSDKIDTPIKKKTTGHARFRNLSSMNKLVEVPEHLTSGYCSKPQQNNKILVDTRVTVSKKKPTKSEKSQTKQKNLLPNLCRFPPSFTGLSPDELWKRRNSIETISELLRLLDINREHSETALVPYTMNSQIVLFGGGAGAIVPVTPVKKPRPRPKVDLDDETDRVWKLLLENINSEGVDGSDEQKAKWWEEERNVFRGRADSFIARMHLVQGDRRFTPWKGSVVDSVVGVFLTQNVSDHLSSSAFMSLASQFPVPFVPSSNFDAGTSSMPSIQITYLDSEETMSSPPDHNHSSVTLKNTQPDEEKDYVPSNETSRSSSEIAISAHESVDKTTDSKEYVDSDRKGSSVEVDKTDEKCRVLNLFPSEDSALTCQHSMVSDAPQNTERAGSSSEIDLEGEYRTSFMKLLQGVQVSLEDSNQVSPNMSPGDCSSEIKGFQSMKEPTKSSVDSSEPGCCSQQDGDVLSCQKPTLKEKGKKVLKEEKKAFDWDCLRREAQARAGIREKTRSTMDTVDWKAIRAADVKEVAETIKSRGMNHKLAERIQGFLDRLVNDHGSIDLEWLRDVPPDKAKEYLLSFNGLGLKSVECVRLLTLHHLAFPVDTNVGRIAVRLGWVPLQPLPESLQLHLLEMYPMLESIQKYLWPRLCKLDQKTLYELHYQMITFGKVFCTKSKPNCNACPMKGECRHFASAFASARLALPSTEKGMGTPDKNPLPLHLPEPFQREQGSEVVQHSEPAKKVTCCEPIIEEPASPEPETAEVSIADIEEAFFEDPEEIPTIRLNMDAFTSNLKKIMEHNKELQDGNMSSALVALTAETASLPMPKLKNISQLRTEHRVYELPDEHPLLAQLEKREPDDPCSYLLAIWTPGETADSIQPSVSTCIFQANGMLCDEETCFSCNSIKETRSQIVRGTILIPCRTAMRGSFPLNGTYFQVNEVFADHASSLNPINVPRELIWELPRRTVYFGTSVPTIFKGLSTEKIQACFWKGYVCVRGFDRKTRGPKPLIARLHFPASKLKGQQANLA
As to B2, the binding entry in test [1] was “binds”.

B3: ROS1 C1045S-nLUC (protein, UniProt Q9SJQ6 1-1393)
chain: B2 chain with C1045S
For the molecule B3, the binding result in test [2] is reported as “binds”.

B4: ROS1 C1038S-nLUC (protein, UniProt Q9SJQ6 1-1393)
chain: B2 chain with C1038S
B4: the binding entry in test [2] is on record as “binds”.
